In PMC8523169:
Results are given in words; binding and its absence hold for the method and conditions named. Tags and fused reporters may be left off the sequences shown.

Legend:
[1] = target: T1, Cy3B-labeled MatP-Cys-His (E. coli) (UniProt P0A8N0); test: fluorescence correlation spectroscopy (FCS); titration at constant 1 nM MatP-Cy3B; 20 mM Tris-HCl pH 7.5, 50 mM NaCl, 0.3 mg/mL BSA, 2 mM DTT, 0.05% Tween-20; 22 °C; fitted to the Hill equation; both purified
T1 sequence (chain, Cy3B maleimide on the single cysteine engineered into the C-terminal linker): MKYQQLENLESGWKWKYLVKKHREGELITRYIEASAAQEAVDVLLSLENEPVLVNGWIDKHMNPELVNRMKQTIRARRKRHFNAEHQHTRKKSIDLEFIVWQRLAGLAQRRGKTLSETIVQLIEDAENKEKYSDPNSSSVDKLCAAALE

[2] = target: T2, MatPΔ18C (1–132), C-terminal 6xHis-tag (E. coli) (UniProt P0A8N0); test: native MS; proteins buffer exchanged into 200 mM ammonium acetate pH 8.0, alone or mixed in different ratios (two or three components, with or without 50 bp DNA), 10 min on ice; both purified
T2 sequence: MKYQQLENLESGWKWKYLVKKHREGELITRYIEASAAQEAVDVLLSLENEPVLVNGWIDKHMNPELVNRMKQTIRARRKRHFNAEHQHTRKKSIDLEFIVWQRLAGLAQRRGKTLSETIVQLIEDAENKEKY

[3] = target: T3, MukB long hinge (LH; amino acid residues 568–863) (E. coli) (UniProt P22523); test: native gel or EMSA; native PAGE; MatP or variants (7 µM) mixed with LH and/or 50 bp DNA at 1:1(:1), 30 min on ice; Coomassie and ethidium bromide staining; both purified
T3 sequence: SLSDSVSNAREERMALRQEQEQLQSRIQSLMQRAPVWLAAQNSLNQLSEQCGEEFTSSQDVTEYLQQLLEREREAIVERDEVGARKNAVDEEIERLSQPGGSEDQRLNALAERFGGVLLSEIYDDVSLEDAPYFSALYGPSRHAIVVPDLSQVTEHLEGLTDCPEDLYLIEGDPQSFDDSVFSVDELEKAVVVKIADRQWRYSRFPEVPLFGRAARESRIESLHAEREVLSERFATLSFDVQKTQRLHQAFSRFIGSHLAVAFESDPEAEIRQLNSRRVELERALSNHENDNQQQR

[4] = target: T3, MukB long hinge (LH; amino acid residues 568–863) (E. coli); test: native MS; proteins buffer exchanged into 200 mM ammonium acetate pH 8.0, alone or mixed in different ratios (two or three components, with or without 50 bp DNA), 10 min on ice; both purified

Binder | binding [1] | binding [2] | binding [3] | binding [4]
full-length ParC, N-terminal 6xHis-tag (enzyme, UniProt P0AFI2 1-752) MSDMAERLALHEFTENAYLNYSMYVIMDRALPFIGDGLKPVQRRIVYAMSELGLNASAKFKKSARTVGDVLGKYHPHGDSACYEAMVLMAQPFSYRYPLVDGQGNWGAPDDPKSFAAMRYTESRLSKYSELLLSELGQGTADWVPNFDGTLQEPKMLPARLPNILLNGTTGIAVGMATDIPPHNLREVAQAAIALIDQPKTTLDQLLDIVQGPDYPTEAEIITSRAEIRKIYENGRGSVRMRAVWKKEDGAVVISALPHQVSGARVLEQIAAQMRNKKLPMVDDLRDESDHENPTRLVIVPRSNRVDMDQVMNHLFATTDLEKSYRINLNMIGLDGRPAVKNLLEILSEWLVFRRDTVRRRLNYRLEKVLKRLHILEGLLVAFLNIDEVIEIIRNEDEPKPALMSRFGLTETQAEAILELKLRHLAKLEEMKIRGEQSELEKERDQLQGILASERKMNNLLKKELQADAQAYGDDRRSPLQEREEAKAMSEHDMLPSEPVTIVLSQMGWVRSAKGHDIDAPGLNYKAGDSFKAAVKGKSNQPVVFVDSTGRSYAIDPITLPSARGQGEPLTGKLTLPPGATVDHMLMESDDQKLLMASDAGYGFVCTFNDLVARNRAGKALITLPENAHVMPPVVIEDASDMLLAITQAGRMLMFPVSDLPQLSKGKGNKIINIPSAEAARGEDGLAQLYVLPPQSTLTIHVGKRKIKLRPEELQKVTGERGRRGTLMRGLQRIDRVEIDSPRRASSGDSEE | no binding | no binding |  | 
MatP^4E (K71E, Q72E, R75E, and R77E) (domain or fragment, UniProt P0A8N0 1-132) MKYQQLENLESGWKWKYLVKKHREGELITRYIEASAAQEAVDVLLSLENEPVLVNGWIDKHMNPELVNRMEETIEAERKRHFNAEHQHTRKKSIDLEFIVWQRLAGLAQRRGKTLSETIVQLIEDAENKEKY |  |  | no binding (tested: MatP variant at 7 µM, 1:1 with LH) | 
MatPΔ18C (1–132), C-terminal 6xHis-tag (domain or fragment, UniProt P0A8N0 1-132) MKYQQLENLESGWKWKYLVKKHREGELITRYIEASAAQEAVDVLLSLENEPVLVNGWIDKHMNPELVNRMKQTIRARRKRHFNAEHQHTRKKSIDLEFIVWQRLAGLAQRRGKTLSETIVQLIEDAENKEKY |  |  | no binding (condition: with 50 bp matS DNA) | no binding (condition: MatP bound to 50 bp matS DNA)
